Assay results reported in paper PMC4165403.

Chains of the proteins cited; added tags and fusions are not shown.
UniProt Q5SQX6: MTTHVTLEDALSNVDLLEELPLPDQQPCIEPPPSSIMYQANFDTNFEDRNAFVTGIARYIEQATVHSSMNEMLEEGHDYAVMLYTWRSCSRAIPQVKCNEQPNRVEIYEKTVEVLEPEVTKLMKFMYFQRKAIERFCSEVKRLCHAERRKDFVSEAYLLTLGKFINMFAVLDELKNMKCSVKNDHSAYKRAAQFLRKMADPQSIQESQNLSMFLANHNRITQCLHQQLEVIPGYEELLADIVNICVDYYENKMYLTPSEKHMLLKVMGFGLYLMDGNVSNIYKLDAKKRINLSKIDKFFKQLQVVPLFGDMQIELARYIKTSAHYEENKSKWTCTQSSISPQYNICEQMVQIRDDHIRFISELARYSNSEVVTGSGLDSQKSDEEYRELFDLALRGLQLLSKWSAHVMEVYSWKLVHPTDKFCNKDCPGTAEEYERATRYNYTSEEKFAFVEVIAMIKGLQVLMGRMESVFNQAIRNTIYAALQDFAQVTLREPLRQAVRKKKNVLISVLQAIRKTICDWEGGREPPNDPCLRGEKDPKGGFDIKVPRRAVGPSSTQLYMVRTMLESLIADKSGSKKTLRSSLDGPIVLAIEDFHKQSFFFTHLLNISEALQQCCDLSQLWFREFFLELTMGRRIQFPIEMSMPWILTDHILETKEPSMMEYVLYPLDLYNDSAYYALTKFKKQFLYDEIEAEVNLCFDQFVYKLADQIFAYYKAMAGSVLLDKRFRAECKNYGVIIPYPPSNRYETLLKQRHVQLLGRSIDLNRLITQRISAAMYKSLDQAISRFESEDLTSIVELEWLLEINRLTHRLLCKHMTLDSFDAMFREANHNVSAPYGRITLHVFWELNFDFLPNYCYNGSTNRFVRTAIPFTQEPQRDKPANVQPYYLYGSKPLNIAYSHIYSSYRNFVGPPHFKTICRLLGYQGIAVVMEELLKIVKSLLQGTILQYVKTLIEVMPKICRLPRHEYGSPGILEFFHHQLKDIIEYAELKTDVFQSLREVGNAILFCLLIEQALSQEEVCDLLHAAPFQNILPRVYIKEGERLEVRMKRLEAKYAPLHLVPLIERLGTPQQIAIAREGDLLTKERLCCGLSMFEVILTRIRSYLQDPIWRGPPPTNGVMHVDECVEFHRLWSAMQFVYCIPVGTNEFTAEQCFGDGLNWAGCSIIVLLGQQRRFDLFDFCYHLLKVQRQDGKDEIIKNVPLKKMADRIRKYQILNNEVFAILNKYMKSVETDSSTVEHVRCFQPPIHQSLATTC
UniProt Q8BH43: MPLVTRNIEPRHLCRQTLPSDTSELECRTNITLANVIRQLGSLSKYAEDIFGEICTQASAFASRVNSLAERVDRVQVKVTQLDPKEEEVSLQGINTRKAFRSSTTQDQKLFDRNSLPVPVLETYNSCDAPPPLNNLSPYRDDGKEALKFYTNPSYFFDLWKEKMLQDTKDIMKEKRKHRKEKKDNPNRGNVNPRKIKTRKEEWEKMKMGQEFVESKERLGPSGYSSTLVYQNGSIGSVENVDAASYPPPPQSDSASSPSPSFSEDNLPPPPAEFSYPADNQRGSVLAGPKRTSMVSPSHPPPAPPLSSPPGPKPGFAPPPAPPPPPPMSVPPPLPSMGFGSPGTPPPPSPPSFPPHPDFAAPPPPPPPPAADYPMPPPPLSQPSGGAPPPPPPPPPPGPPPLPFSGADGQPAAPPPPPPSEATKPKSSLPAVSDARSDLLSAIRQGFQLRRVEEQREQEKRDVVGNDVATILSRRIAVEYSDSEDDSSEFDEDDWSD

B1: zyxin (endogenous, MV^D7 cells) (protein, UniProt Q62523 1-564)
chain: MAAPRPPPAISVSVSAPAFYAPQKKFAPVVAPKPKVNPFRPGDSEPPVAAGAQRAQMGRVGEIPPPPPEDFPLPPPPLIGEGDDSEGALGGAFPPPPPPMIEEPFPPAPLEEDIFPSPPPPLEEEGGPEAPTQLPPQPREKVCSIDLEIDSLSSLLDDMTKNDPFKARVSSGYVPPPVATPFVPKPSTKPAPGGTAPLPPWKTPSSSQPPPQPQAKPQVQLHVQPQAKPHVQPQPVSSANTQPRGPLSQAPTPAPKFAPVAPKFTPVVSKFSPGAPSGPGPQPNQKMVPPDAPSSVSTGSPQPPSFTYAQQKEKPLVQEKQHPQPPPAQNQNQVRSPGGPGPLTLKEVEELEQLTQQLMQDMEHPQRQSVAVNESCGKCNQPLARAQPAVRALGQLFHITCFTCHQCQQQLQGQQFYSLEGAPYCEGCYTDTLEKCNTCGQPITDRMLRATGKAYHPQCFTCVVCACPLEGTSFIVDQANQPHCVPDYHKQYAPRCSVCSEPIMPEPGRDETVRVVALDKNFHMKCYKCEDCGKPLSIEADDNGCFPLDGHVLCRKCHSARAQT

target: GST-tagged EVH1 domain of Mena (human) (UniProt Q8N8S7); test: affinity purification with mass spectrometry; GST-EVH1 Mena or GST resin on MV^D7 cell lysates; stained bands digested with trypsin, LC-MS/MS; only the target purified

binding, binds:
PIR121 (endogenous, MV^D7 cells) (from UniProt Q5SQX6 1-1253)
WAVE2 (endogenous, MV^D7 cells) (from UniProt Q8BH43 1-497)
B1

These are yes or no findings as the source states them, for the method shown. Binding seen in cells or lysates may run through a third protein. These calls come from enrichment with a bait or labelling near it, and not all partners need be listed.
